These are yes or no findings as the source states them, for the method shown. Binding seen in cells or lysates may run through a third protein. Some binding calls cover weakened binding; strength is not graded here.
Biological target: glutamate dehydrogenase (GDH) (bovine (endogenous in MAC-T)) (UniProt P00366)
Experiment: co-IP

By UniProt entry, the sequences of proteins in these tests, tags left out. Residues count along the entry.
UniProt P00366, residues 58-558: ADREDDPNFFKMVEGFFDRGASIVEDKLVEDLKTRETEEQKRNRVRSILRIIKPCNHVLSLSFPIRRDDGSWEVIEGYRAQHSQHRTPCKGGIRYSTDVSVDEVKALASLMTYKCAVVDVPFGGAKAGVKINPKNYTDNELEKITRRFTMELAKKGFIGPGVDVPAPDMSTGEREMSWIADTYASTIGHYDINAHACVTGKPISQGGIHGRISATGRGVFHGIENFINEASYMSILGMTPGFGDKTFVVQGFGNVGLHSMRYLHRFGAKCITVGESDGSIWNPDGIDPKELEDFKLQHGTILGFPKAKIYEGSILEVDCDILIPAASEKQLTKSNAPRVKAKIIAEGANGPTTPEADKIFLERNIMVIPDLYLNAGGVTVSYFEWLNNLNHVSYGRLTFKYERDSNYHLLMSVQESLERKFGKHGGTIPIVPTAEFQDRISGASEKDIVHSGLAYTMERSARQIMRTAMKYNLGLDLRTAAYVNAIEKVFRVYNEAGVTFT
UniProt Q3ZBQ0, residues 37-310: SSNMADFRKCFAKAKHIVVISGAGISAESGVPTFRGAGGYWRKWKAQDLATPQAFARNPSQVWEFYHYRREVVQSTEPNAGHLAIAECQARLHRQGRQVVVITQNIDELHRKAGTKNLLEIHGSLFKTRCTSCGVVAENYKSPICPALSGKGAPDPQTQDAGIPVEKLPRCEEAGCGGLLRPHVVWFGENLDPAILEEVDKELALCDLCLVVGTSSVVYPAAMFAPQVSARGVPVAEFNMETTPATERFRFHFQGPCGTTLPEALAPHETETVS

Sirtuin 5 (SIRT5) (from UniProt Q3ZBQ0 37-310) (enzyme)
binding: binds
